PubChem BioAssay AID1259254 – NCATS | 2017

- Purpose: 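Genome-wide screen for genes that prevent DNA re-replication in cancer cells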 (primary screen)
- Cells: human HCT116 colorectal cancer cells
- Reagent: single siRNA against human genes
- Time to read-out: 3 days
- Read-out: 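Imaged Hoechst DNA stain sorts each cell into a cycle phase by DNA amount; per plate, G2 fraction set to 0% for non-targeting and 100% for GMNN siRNA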
- Reading the numbers: G2 robust z-score and G2 cells, % of GMNN control: higher = more G2 cells, more excess DNA replication; raw share of cells in G2: higher = larger share of cells with G2 DNA content
- Rule for the call: 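Active siRNAs have a G2 robust z of 5 or more median absolute deviations over the median, which in these data means about 38% or higher of GMNN control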
This is an unselected part of about 59,000 reagents. About 1,550 of them (2.6%) were called active. 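G2 share is only a proxy for re-replication; each gene was hit by three separate siRNAs, and active genes were retested.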 The raw values are shown without normalisation. Unmarked entries are inactive. Not given: the amount of reagent.

gene symbol	PubChem SID	G2 robust z-score	G2 cells, % of GMNN control	raw share of cells in G2 (%)
CUX1	SID160750862	-0.577	-1.09	4.57
CUX1	SID160750872	1.81	15.7	10.7
CUX1	SID160750884	0.573	7	6.51
ARSD	SID160720393	1.07	10.5	8.28
ARSD	SID160720404	2.08	17.6	11.3
ARSD	SID160720414	2.43	20.1	11.5
CITED2	SID160728273	-0.721	-2.1	2.83
CITED2	SID160730430	-1.21	-5.57	3.51
CITED2	SID160730432	-0.818	-2.79	2.17
GABRA3	SID160768364	-1.01	-4.12	3.79
GABRA3	SID160768373	0.549	6.83	7.09
GABRA3	SID160768383	0.661	7.62	7.35
KNOP1	SID160766969	0.109	3.74	5.17
KNOP1	SID160766970	1.17	11.2	7.96
KNOP1	SID160766971	-1.07	-4.56	2.9
FETUB	SID160738228	-0.749	-2.3	2.97
FETUB	SID160738230	-1.41	-6.97	1.91
FETUB	SID160738231	0.253	4.75	4.75
FBXL7	SID160735681	2.51	20.6	13.1
FBXL7	SID160735682	-0.822	-2.82	2.97
FBXL7	SID160735683	-0.477	-0.388	3.03
PIH1D2	SID160755803	0.764	8.35	7.44
PIH1D2	SID160755804	2.37	19.6	9.18
PIH1D2	SID160755805	-0.0358	2.72	2.61
TBC1D17	SID160749317	7.51 (active)	55.8	27.6
TBC1D17	SID160749318	0.197	4.35	6.21
TBC1D17	SID160749319	-0.98	-3.93	1.3
GP1BB	SID160723790	-0.358	0.45	3.25
GP1BB	SID160723791	2.84	23	11.1
GP1BB	SID160723792	-0.877	-3.2	2.4
NAXD	SID160744224	-0.949	-3.71	3.1
NAXD	SID160744225	-0.36	0.432	4.32
NAXD	SID160744226	0.0582	3.38	4.21
TNFSF9	SID160720725	3.47	27.4	17.3
TNFSF9	SID160720726	1.45	13.2	9.11
TNFSF9	SID160720727	0.365	5.53	5.3
ELF2P4	SID160769376	-0.375	0.326	3.76
ELF2P4	SID160769377	0.396	5.76	5.34
ELF2P4	SID160769378	-0.631	-1.47	2.72
NRBP1	SID160739395	1.51	13.6	9.82
NRBP1	SID160739396	3.87	30.2	16.2
NRBP1	SID160739397	0.0624	3.41	4.77
MNT	SID160777390	0.425	5.96	7.51
MNT	SID160777391	-0.559	-0.966	3.84
MNT	SID160777392	-0.242	1.27	3.81
OSGEP	SID160743982	-0.487	-0.459	5.4
OSGEP	SID160743983	-0.156	1.87	5.57
OSGEP	SID160743984	-0.163	1.82	4.59

Only “raw share of cells in G2 (%)”, for 4 of the entries above:
ARSD [SID160720393]: 8.28
ARSD [SID160720404]: 11.3
ARSD [SID160720414]: 11.5
CITED2 [SID160728273]: 2.83
